Source: article doi:10.1101/2022.05.31.494111
No constants are given. Whether binding was seen depends on the method and setting. Some entries that bind do so weakly or less than the wild type.

T1: human IFT81/74 heterodimer (human) (UniProt Q8WYA0)
T1 sequence 1: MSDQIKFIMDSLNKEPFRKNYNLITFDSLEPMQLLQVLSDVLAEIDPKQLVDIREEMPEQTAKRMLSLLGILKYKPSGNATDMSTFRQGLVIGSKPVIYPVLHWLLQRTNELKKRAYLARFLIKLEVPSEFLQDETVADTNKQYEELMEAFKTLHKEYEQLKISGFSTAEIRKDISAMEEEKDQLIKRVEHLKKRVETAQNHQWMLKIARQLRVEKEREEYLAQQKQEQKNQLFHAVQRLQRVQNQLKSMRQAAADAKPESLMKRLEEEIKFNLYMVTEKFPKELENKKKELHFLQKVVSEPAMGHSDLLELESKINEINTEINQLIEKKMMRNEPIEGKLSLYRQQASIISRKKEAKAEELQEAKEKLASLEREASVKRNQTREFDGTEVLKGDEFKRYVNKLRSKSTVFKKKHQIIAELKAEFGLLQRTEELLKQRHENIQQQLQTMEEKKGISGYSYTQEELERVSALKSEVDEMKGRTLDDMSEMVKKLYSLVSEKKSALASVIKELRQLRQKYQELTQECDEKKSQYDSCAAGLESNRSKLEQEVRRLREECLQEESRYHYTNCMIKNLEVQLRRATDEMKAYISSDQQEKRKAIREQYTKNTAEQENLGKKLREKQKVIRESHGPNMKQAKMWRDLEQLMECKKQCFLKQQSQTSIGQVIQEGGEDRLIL
T1 sequence 2: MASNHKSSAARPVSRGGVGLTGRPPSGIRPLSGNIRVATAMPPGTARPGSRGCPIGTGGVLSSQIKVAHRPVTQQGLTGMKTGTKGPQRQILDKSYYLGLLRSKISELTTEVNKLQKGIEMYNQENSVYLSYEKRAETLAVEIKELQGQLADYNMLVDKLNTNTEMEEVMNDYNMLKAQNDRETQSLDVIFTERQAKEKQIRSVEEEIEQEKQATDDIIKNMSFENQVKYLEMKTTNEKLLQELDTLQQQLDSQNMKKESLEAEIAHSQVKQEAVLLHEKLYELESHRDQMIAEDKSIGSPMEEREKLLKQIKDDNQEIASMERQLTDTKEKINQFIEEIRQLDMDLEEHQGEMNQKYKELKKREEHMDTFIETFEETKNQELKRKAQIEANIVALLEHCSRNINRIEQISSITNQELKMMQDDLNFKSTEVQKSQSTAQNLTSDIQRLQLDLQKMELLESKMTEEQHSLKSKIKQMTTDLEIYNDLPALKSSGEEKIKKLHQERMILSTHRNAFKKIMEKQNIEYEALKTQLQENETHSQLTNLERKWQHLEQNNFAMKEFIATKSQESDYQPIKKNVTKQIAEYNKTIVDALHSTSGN

B1: human RabL2B (protein, UniProt Q9UNT1 1-228)
chain: MAEDKTKPSELDQGKYDADDNVKIICLGDSAVGKSKLMERFLMDGFQPQQLSTYALTLYKHTATVDGRTILVDFWDTAGQERFQSMHASYYHKAHACIMVFDVQRKVTYRNLSTWYTELREFRPEIPCIVVANKIDDINVTQKSFNFAKKFSLPLYFVSAADGTNVVKLFNDAIRLAVSYKQNSQDFMDEIFQELENFSLEQEEEDVPDQEQSSSIETPSEEAASPHS
B2: human IFT27/25 heterodimer (complex, UniProt Q9BW83 1-186; Q9Y547 1-144)
chain 1: MVKLAAKCILAGDPAVGKTALAQIFRSDGAHFQKSYTLTTGMDLVVKTVPVPDTGDSVELFIFDSAGKELFSEMLDKLWESPNVLCLVYDVTNEESFNNCSKWLEKARSQAPGISLPGVLVGNKTDLAGRRAVDSAEARAWALGQGLECFETSVKEMENFEAPFHCLAKQFHQLYREKVEVFRALA
chain 2: MRKIDLCLSSEGSEVILATSSDEKHPPENIIDGNPETFWTTTGMFPQEFIICFHKHVRIERLVIQSYFVQTLKIEKSTSKEPVDFEQWIEKDLVHTEGQLQNEEIVAHDGSATYLRFIIVSAFDHFASVHSVSAEGTVVSNLSS
B3: human IFT22 (protein, UniProt Q9H7X7 1-185)
chain: MLKAKILFVGPCESGKTVLANFLTESSDITEYSPTQGVRILEFENPHVTSNNKGTGCEFELWDCGGDAKFESCWPALMKDAHGVVIVFNADIPSHRKEMEMWYSCFVQQPSLQDTQCMLIAHHKPGSGDDKGSLSLSPPLNKLKLVHSNLEDDPEEIRMEFIKYLKSIINSMSESRDREEMSIMT

Legend:
[1] = target: T2, human IFT-B1 pentamer HsIFT81/74/27/25/22 (human) (UniProt Q8WYA0+Q96LB3+Q9BW83+Q9Y547+Q9H7X7); experiment: SEC
[2] = target: T2, human IFT-B1 pentamer HsIFT81/74/27/25/22 (human); experiment: cross-linking
[3] = target: T1, human IFT81/74 heterodimer (human); experiment: SEC

Binder	binding [1]	binding [2]	binding [3]
B1	binds	binds	
B2			binds
B3			binds
